From patent publication US10881719B2, “Combinatorial androgen deprivation with an androgen receptor vaccine” (Wisconsin Alumni Research Foundation, priority 2016, dated 2021)
At least one compound was matched to its structure with a doubt left.

Test system: prostate tumor cells
Test: AR expression in prostate tumor cells in vitro after treatment with AR antagonists
Assay type: cell-based
Details: after treatment with AR antagonist

CC(O)(CS(=O)(=O)c1ccc(F)cc1)C(=O)Nc1ccc(C#N)c(C(F)(F)F)c1 (stereo not shown) [bicalutamide]
AR expression in prostate tumor cells: increased AR expression
